From paper PMC5327418

The chains behind the UniProt entries cited, without tags or fusion partners.
UniProt P32569: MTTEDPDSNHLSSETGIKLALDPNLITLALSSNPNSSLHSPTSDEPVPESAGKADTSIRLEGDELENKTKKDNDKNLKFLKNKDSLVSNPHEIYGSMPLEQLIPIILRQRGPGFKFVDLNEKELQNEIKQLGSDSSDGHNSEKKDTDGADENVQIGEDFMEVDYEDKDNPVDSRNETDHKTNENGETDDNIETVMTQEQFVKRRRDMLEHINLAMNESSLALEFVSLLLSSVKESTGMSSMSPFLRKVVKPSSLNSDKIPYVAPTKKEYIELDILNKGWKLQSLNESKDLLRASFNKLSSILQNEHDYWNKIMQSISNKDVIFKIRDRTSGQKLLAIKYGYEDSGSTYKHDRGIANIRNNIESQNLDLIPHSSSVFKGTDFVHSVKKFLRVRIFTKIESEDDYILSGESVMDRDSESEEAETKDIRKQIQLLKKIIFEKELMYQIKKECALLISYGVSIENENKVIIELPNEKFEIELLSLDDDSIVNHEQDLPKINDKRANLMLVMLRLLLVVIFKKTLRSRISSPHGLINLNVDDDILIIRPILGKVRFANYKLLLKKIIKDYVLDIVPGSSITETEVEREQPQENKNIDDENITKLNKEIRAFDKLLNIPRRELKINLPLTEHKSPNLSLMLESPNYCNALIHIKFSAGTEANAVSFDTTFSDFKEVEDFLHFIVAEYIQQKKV
UniProt P02294: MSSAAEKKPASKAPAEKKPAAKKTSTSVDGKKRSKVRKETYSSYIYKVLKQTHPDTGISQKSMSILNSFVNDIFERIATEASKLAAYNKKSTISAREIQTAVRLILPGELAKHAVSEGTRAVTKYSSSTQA
UniProt Q02206: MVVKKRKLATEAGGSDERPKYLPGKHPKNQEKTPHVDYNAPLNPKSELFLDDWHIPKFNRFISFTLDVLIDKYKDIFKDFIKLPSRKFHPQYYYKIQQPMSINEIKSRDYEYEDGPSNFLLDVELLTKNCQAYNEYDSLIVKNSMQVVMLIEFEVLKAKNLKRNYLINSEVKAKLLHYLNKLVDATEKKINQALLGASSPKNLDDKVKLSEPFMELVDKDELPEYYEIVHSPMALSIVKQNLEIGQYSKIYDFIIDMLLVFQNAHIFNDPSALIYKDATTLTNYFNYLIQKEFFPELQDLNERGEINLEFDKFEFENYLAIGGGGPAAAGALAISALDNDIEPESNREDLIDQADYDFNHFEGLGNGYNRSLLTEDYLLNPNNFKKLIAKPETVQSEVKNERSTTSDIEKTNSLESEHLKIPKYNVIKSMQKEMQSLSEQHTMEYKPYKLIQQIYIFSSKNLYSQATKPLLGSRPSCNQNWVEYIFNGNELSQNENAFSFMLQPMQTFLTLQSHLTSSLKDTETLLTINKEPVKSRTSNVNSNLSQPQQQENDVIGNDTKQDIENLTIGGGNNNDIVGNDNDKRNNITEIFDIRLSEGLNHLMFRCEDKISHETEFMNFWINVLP
UniProt P38697: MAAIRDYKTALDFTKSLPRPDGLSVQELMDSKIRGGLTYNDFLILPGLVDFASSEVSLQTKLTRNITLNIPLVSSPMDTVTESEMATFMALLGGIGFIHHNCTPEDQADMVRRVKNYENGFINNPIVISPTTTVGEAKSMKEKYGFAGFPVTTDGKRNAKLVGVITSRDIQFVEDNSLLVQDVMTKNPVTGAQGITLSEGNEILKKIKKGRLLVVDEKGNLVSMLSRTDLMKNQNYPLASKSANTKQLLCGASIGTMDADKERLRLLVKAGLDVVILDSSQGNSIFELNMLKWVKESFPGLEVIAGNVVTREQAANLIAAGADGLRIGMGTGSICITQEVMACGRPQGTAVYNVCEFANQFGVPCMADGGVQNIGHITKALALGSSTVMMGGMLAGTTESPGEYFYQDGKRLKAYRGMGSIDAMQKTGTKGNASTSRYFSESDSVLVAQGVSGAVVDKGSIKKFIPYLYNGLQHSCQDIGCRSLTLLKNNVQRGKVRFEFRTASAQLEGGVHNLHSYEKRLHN
UniProt Q12692: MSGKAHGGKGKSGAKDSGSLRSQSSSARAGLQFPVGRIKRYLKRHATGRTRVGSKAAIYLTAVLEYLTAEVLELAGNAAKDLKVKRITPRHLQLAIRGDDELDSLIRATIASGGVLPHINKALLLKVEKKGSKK
UniProt Q04636: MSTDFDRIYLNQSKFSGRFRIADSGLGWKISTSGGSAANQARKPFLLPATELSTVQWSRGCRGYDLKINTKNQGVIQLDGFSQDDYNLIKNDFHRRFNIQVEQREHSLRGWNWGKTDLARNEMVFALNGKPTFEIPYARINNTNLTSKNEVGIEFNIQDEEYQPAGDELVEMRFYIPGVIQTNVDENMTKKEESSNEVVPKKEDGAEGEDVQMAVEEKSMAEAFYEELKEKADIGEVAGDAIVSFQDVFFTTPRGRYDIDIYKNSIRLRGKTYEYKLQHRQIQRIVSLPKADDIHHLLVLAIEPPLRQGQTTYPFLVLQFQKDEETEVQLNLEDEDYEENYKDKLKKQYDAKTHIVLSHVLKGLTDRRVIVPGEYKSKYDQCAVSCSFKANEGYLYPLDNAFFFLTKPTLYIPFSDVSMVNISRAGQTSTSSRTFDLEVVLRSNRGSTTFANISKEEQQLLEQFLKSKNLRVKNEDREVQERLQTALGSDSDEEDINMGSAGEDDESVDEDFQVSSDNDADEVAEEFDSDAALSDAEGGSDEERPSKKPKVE
UniProt Q12273: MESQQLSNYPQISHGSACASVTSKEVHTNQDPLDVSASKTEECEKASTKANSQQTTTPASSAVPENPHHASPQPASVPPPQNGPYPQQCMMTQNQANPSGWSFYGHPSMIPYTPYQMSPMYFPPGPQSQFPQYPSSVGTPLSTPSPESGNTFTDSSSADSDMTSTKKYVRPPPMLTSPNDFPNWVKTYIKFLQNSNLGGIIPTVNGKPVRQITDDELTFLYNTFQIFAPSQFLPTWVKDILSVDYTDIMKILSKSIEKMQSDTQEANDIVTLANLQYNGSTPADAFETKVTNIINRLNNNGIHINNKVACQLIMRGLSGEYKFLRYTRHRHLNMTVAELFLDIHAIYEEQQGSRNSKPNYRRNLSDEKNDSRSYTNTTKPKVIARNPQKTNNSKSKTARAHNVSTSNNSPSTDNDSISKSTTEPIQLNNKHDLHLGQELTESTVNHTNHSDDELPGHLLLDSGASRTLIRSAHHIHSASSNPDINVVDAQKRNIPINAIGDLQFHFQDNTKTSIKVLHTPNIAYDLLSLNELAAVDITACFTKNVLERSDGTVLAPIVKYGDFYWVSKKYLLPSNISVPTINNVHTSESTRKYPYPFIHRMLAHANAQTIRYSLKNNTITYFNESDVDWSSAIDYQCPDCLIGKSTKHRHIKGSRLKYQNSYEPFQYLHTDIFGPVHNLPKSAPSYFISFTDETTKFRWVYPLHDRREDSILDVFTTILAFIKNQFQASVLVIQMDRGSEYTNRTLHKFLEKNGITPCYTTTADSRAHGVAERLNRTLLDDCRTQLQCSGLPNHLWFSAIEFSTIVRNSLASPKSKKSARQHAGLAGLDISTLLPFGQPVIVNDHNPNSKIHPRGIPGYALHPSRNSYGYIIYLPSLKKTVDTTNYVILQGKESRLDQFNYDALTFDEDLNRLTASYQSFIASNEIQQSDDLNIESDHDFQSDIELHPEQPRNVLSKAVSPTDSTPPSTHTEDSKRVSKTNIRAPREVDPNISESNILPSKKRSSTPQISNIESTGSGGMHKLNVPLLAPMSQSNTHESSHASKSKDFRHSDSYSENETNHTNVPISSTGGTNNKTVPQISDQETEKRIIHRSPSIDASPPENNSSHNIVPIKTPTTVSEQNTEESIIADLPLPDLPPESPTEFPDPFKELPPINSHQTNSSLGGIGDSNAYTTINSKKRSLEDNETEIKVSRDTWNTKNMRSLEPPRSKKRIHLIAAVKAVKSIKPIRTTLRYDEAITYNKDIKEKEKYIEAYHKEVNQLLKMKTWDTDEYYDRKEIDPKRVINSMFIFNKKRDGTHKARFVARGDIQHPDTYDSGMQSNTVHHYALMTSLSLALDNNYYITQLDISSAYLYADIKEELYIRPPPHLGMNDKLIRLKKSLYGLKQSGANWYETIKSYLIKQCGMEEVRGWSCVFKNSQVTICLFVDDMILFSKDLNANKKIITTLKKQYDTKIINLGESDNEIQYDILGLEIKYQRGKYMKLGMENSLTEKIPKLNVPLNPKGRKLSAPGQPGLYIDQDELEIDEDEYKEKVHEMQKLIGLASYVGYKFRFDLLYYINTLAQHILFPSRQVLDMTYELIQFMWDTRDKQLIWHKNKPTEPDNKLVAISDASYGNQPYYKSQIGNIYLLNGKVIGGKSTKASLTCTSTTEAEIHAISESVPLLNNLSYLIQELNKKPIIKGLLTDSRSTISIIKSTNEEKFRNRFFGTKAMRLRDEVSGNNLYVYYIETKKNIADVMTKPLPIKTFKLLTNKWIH
UniProt P47035: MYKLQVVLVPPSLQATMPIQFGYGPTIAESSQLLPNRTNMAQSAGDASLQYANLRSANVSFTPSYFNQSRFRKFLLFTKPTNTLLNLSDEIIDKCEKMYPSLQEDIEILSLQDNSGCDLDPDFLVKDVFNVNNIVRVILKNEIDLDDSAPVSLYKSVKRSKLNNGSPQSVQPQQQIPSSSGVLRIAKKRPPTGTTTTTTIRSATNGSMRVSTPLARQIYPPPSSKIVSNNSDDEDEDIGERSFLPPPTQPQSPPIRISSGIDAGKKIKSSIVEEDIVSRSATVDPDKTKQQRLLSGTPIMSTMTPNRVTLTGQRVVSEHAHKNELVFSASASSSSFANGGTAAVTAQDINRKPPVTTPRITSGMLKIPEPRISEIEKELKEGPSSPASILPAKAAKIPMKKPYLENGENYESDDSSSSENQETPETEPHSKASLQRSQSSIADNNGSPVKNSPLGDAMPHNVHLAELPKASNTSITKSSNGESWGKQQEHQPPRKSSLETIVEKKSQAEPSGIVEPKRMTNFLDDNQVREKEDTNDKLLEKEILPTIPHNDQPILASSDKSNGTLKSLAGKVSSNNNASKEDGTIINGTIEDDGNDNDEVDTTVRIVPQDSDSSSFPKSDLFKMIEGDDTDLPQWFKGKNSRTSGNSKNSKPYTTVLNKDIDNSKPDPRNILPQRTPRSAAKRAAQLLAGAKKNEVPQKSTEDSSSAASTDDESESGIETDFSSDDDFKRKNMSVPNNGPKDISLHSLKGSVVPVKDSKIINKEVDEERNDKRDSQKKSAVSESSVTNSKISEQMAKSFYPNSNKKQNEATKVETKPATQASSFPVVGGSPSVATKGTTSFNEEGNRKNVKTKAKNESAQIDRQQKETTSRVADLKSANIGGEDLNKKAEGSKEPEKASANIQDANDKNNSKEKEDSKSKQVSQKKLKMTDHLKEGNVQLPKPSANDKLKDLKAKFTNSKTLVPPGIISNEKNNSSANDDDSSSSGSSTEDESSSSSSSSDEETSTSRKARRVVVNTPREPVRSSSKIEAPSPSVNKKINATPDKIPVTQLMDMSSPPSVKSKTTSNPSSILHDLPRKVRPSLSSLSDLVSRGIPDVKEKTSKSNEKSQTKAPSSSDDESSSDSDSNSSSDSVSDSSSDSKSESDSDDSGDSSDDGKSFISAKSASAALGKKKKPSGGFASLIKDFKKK
UniProt P04911: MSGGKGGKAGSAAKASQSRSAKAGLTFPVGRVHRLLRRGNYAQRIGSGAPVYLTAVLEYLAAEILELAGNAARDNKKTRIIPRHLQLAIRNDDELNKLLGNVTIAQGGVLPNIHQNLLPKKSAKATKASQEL
UniProt P53628: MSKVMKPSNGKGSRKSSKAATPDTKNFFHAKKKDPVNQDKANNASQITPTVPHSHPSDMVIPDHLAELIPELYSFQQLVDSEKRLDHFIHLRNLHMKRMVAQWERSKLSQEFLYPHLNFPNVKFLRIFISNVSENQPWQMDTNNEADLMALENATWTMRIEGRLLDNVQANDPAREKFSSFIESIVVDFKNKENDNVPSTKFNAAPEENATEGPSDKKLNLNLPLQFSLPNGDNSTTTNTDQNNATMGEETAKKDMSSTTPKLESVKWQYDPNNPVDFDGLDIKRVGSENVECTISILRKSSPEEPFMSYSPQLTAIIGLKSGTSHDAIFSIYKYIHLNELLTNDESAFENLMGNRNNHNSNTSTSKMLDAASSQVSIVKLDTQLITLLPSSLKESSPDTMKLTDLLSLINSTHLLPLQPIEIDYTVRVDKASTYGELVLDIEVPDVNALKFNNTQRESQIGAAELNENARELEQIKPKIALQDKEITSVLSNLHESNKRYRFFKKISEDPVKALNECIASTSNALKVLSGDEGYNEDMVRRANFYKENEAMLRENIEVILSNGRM
UniProt P03069: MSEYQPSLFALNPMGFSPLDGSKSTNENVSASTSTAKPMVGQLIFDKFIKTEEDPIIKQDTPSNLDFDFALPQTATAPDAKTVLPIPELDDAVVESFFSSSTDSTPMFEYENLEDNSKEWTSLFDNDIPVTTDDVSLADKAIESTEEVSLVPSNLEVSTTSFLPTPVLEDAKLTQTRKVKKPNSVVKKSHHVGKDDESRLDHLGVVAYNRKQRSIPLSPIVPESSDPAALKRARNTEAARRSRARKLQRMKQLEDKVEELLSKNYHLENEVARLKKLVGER

Target: Med17-HA (S. cerevisiae (endogenous in S288c)) (UniProt P32569)
Assay: affinity purification with mass spectrometry; CoIP of Med17-HA on anti-HA magnetic beads from cryoground yeast lysate, 2 h at 4 °C; 20 mM HEPES pH 7.5, 300 mM KOAc, 10% glycerol, 0.01% NP-40, 6 mM MnSO4, 1 mM DTT, Cyanase nuclease; parallel control CoIP from 15N-labelled wild type cells, mixing after purification (MAP); GeLC-MS/MS, three biological replicates

binding: binds
Molecule: Snf5 (from UniProt P18480 1-905)

binding: binds
Molecule: Taf12 (from UniProt Q03761 1-539)

binding: binds
Molecule: Gcn5 (from UniProt Q03330 1-439)

binding: binds
Molecule: Crz1 (from UniProt P53968 1-678)

binding: binds
Molecule: H2B2 (from UniProt P02294 1-131)

binding: binds
Molecule: Msn4 (from UniProt P33749 1-630)

binding: binds
Molecule: Sth1 (from UniProt P32597 1-1359)

binding: binds
Molecule: Ima1 (from UniProt Q02821 1-542)

binding: binds
Molecule: Arp9 (from UniProt Q05123 1-467)

binding: binds
Molecule: Rsc3 (from UniProt Q06639 1-885)

binding: binds
Molecule: Rsc4 (from UniProt Q02206 1-625)

binding: binds
Molecule: Rrn5 (from UniProt Q02983 1-363)

binding: binds
Molecule: Imdh2 (from UniProt P38697 1-523)

binding: binds
Molecule: Imdh1 (from UniProt P39567 1-403)

binding: binds
Molecule: Sir2 (from UniProt P06700 1-562)

binding: binds
Molecule: Mdn1 (from UniProt Q12019 1-4910)

binding: binds
Molecule: H2AZ (from UniProt Q12692 1-134)

binding: binds
Molecule: Skn7 (from UniProt P38889 1-622)

binding: binds
Molecule: Pabp (from UniProt P04147 1-577)

binding: binds
Molecule: Tra1 (from UniProt P38811 1-3744)

binding: binds
Molecule: Brr2 (from UniProt P32639 1-2163)

binding: binds
Molecule: Pob3 (from UniProt Q04636 1-552)

binding: binds
Molecule: Xrn1 (from UniProt P22147 1-1528)

binding: binds
Molecule: Isw1 (from UniProt P38144 1-1129)

binding: binds
Molecule: Spt16 (from UniProt P32558 1-1035)

binding: binds
Molecule: Taf14 (from UniProt P35189 1-244)

binding: binds
Molecule: Yo11b (from UniProt Q12273 1-1755)

binding: binds
Molecule: Net1 (from UniProt P47035 1-1189)

binding: binds
Molecule: Imdh3 (from UniProt P50095 1-523)

binding: binds
Molecule: Snf2 (from UniProt P22082 1-1703)

binding: binds
Molecule: Rsc7 (from UniProt P32832 1-435)

binding: binds
Molecule: Yc21b (from UniProt P25384 1-1770)

binding: binds
Molecule: Swi3 (from UniProt P32591 1-825)

binding: no binding
Molecule: Chd1 (from UniProt P32657 1-1468)

binding: binds
Molecule: Snf6 (from UniProt P18888 1-332)

binding: binds
Molecule: Arp7 (from UniProt Q12406 1-477)

binding: binds
Molecule: Hsf1 (from UniProt P10961 1-833)

binding: binds
Molecule: Ino80 (from UniProt P53115 1-1489)

binding: binds
Molecule: Imdh4 (from UniProt P50094 1-524)

binding: binds
Molecule: Rsc6 (from UniProt P25632 1-483)

binding: binds
Molecule: H2A1 (from UniProt P04911 1-132)

binding: binds
Molecule: Spt7 (from UniProt P35177 1-1332)

binding: binds
Molecule: Snf12 (from UniProt P53628 1-566)

binding: binds
Molecule: Gcn4 (from UniProt P03069 1-281)

binding: binds
Molecule: Imb1 (from UniProt Q06142 1-861)

binding: binds
B1: Mak5 (protein, UniProt P38112 1-773)
chain: MGKKRAPQKGKTVTKPQEIIVDESKLNWKPVDIPDTLDDFGGFYGLEEIDGVDVKVVDGKVTFVTKKDSKVLKDSNKEKVGDDQESVENESGSDSESELLEFKNLDDIKEGELSAASYSSSDEDEQGNIESSKLTDPSEDVDEDVDEDVLKENVFNKDINIDDISPVNLPEWTNLAPLSMTILQSLQNLNFLRPTEIQKKSIPVIMQGVDVMGKASTGSGKTLAYGIPIVEKLISNFSQKNKKPISLIFTPTRELAHQVTDHLKKICEPVLAKSQYSILSLTGGLSIQKQQRLLKYDNSGQIVIATPGRFLELLEKDNTLIKRFSKVNTLILDEADRLLQDGHFDEFEKIIKHLLVERRKNRENSEGSSKIWQTLIFSATFSIDLFDKLSSSRQVKDRRFKNNEDELNAVIQHLMSKIHFNSKPVIIDTNPESKVSSQIKESLIECPPLERDLYCYYFLTMFPGTTLIFCNAIDSVKKLTVYLNNLGIPAFQIHSSMTQKNRLKSLERFKQQSAKQKTINHSNPDSVQLSTVLIASDVAARGLDIPGVQHVIHYHLPRSTDIYIHRSGRTARAGSEGVSAMICSPQESMGPLRKLRKTLATKNSVSTDLNSRSTNRKPIKWQNTVPLLPIETDILSQLRERSRLAGELADHEIASNSLRKDDNWLKKAADELGIDVDSDEDDISKSNSDTFLLKNKNKKMQKTINKDKVKAMRATLNELLSVPIRKDRRQKYLTGGLVNLADNLVKKRGHNSIIGHEKTNALETLKKKKKRNN

binding: binds
B2: Dbp10 (protein, UniProt Q12389 1-995)
chain: MAGVQKRKRDLEDQDDNGSEEDDIAFDIANEIALNDSESDANDSDSEVEADYGPNDVQDVIEYSSDEEEGVNNKKKAENKDIKKKKNSKKEIAAFPMLEMSDDENNASGKTQTGDDEDDVNEYFSTNNLEKTKHKKGSFPSFGLSKIVLNNIKRKGFRQPTPIQRKTIPLILQSRDIVGMARTGSGKTAAFILPMVEKLKSHSGKIGARAVILSPSRELAMQTFNVFKDFARGTELRSVLLTGGDSLEEQFGMMMTNPDVIIATPGRFLHLKVEMNLDLKSVEYVVFDEADRLFEMGFQEQLNELLASLPTTRQTLLFSATLPNSLVDFVKAGLVNPVLVRLDAETKVSENLEMLFLSSKNADREANLLYILQEIIKIPLATSEQLQKLQNSNNEADSDSDDENDRQKKRRNFKKEKFRKQKMPAANELPSEKATILFVPTRHHVEYISQLLRDCGYLISYIYGTLDQHARKRQLYNFRAGLTSILVVTDVAARGVDIPMLANVINYTLPGSSKIFVHRVGRTARAGNKGWAYSIVAENELPYLLDLELFLGKKILLTPMYDSLVDVMKKRWIDEGKPEYQFQPPKLSYTKRLVLGSCPRLDVEGLGDLYKNLMSSNFDLQLAKKTAMKAEKLYYRTRTSASPESLKRSKEIISSGWDAQNAFFGKNEEKEKLDFLAKLQNRRNKETVFEFTRNPDDEMAVFMKRRRKQLAPIQRKATERRELLEKERMAGLSHSIEDEILKGDDGETGYTVSEDALKEFEDADQLLEAQENENKKKKKPKSFKDPTFFLSHYAPAGDIQDKQLQITNGFANDAAQAAYDLNSDDKVQVHKQTATVKWDKKRKKYVNTQGIDNKKYIIGESGQKIAASFRSGRFDDWSKARNLKPLKVGSRETSIPSNLLEDPSQGPAANGRTVRGKFKHKQMKAPKMPDKHRDNYYSQKKKVEKALQSGISVKGYNNAPGLRSELKSTEQIRKDRIIAEKKRAKNARPSKKRKF

binding: binds
B3: Drs1 (protein, UniProt P32892 1-752)
chain: MVVGTKKYSNLDFVPTISDSEDDVPILDSSDDEKVEAKKTTKKRKGKNNKKKVSEGDNLDEDVHEDLDAGFKFDLDADDTTSNFQGWNFLAEGESNKDDAEAFVKKDVDLDKIIRRKGGLVKMAHIDSKQEEETEKEKVEKENDSDDEELAMDGFGMGAPMNNGDENQSEEEEEEEEKEEEEEEEEEQEEMTLEKGGKDDEIDEEDDSEEAKADFYAPETEGDEAKKQMYENFNSLSLSRPVLKGLASLGYVKPSPIQSATIPIALLGKDIIAGAVTGSGKTAAFMIPIIERLLYKPAKIASTRVIVLLPTRELAIQVADVGKQIARFVSGITFGLAVGGLNLRQQEQMLKSRPDIVIATPGRFIDHIRNSASFNVDSVEILVMDEADRMLEEGFQDELNEIMGLLPSNRQNLLFSATMNSKIKSLVSLSLKKPVRIMIDPPKKAATKLTQEFVRIRKRDHLKPALLFNLIRKLDPTGQKRIVVFVARKETAHRLRIIMGLLGMSVGELHGSLTQEQRLDSVNKFKNLEVPVLICTDLASRGLDIPKIEVVINYDMPKSYEIYLHRVGRTARAGREGRSVTFVGESSQDRSIVRAAIKSVEENKSLTQGKALGRNVDWVQIEETNKLVESMNDTIEDILVEEKEEKEILRAEMQLRKGENMLKHKKEIQARPRRTWFQSESDKKNSKVLGALSRNKKVTNSKKRKREEAKADGNGARSYRKTKTDRIADQERTFKKQKSTNSNKKKGFKSRR

binding: binds
B4: Enp1 (protein, UniProt P38333 1-483)
chain: MARASSTKARKQRHDPLLKDLDAAQGTLKKINKKKLAQNDAANHDAANEEDGYIDSKASRKILQLAKEQQDEIEGEELAESERNKQFEARFTTMSYDDEDEDEDEDEEAFGEDISDFEPEGDYKEEEEIVEIDEEDAAMFEQYFKKSDDFNSLSGSYNLADKIMASIREKESQVEDMQDDEPLANEQNTSRGNISSGLKSGEGVALPEKVIKAYTTVGSILKTWTHGKLPKLFKVIPSLRNWQDVIYVTNPEEWSPHVVYEATKLFVSNLTAKESQKFINLILLERFRDNIETSEDHSLNYHIYRAVKKSLYKPSAFFKGFLFPLVETGCNVREATIAGSVLAKVSVPALHSSAALSYLLRLPFSPPTTVFIKILLDKKYALPYQTVDDCVYYFMRFRILDDGSNGEDATRVLPVIWHKAFLTFAQRYKNDITQDQRDFLLETVRQRGHKDIGPEIRRELLAGASREFVDPQEANDDLMIDVN

binding: binds
B5: Dbp7 (protein, UniProt P36120 1-742)
chain: MSDEDSMLLNFTTNEDTAGSSYKQAAKVTGGRWKDRRRMKMKLEGKTVSRKRKANTTGDEGIIPGRGENSIKKLHKESSYSSEEQEKYKGRNAHNTQGRTLPADSQFVSSLFTSNREITTAVNTNIHDENVAINPSNAPLKGDQFASLGVSSLLVSHLEQKMRIKKPTSIQKQAIPQIIGNAGKNDFFIHAQTGSGKTLSYLLPIISTILNMDTHVDRTSGAFALVIAPTRELASQIYHVCSTLVSCCHYLVPCLLIGGERKKSEKARLRKGCNFIIGTPGRVLDHLQNTKVIKEQLSQSLRYIVLDEGDKLMELGFDETISEIIKIVHDIPINSEKFPKLPHKLVHMLCSATLTDGVNRLRNVALKDYKLISNGTKKDSDIVTVAPDQLLQRITIVPPKLRLVTLAATLNNITKDFIASGQQSKTLRTIVFVSCSDSVEFHYDAFSGSDGHHKNLTGDSVRLLTKGNTMFPCFSDSRDPDVVIYKLHGSLSQQMRTSTLQHFARDNEATKGKHLIMFCTDVASRGLDLPHVGSVIELDPPFAVEDHLHRVGRTARAGEKGESLLFLLPGEEEKYMDYIQPYHPMGWELLKFDKEILMPAFKDVNVNRNDKFIRKDEKSSKNKDVGDKEYEWDTNATTWHLNIERRVVGDSAFKNLAVKGFISHVRAYATHISQEKKFFNVKFLHLGHLAKSFGLRERPKAMGLQSSKDGNSEKKPTKENSKNKMFRMARMAEKQIASEFNY

These are yes or no findings as the source states them, for the method shown. In cells and extracts the contact can be indirect. Here binding means that the protein was enriched with, or labelled near, the bait; the list need not be complete. A no says only that the protein was not detected with the bait. Each block holds one molecule with its values, some of them ahead of it.
